Source: article PMC10086748
Results are given in words; binding and its absence hold for the method and conditions named. In cells and extracts the contact can be indirect. Some entries that bind do so weakly or less than the wild type. Sequences can lack the tags named with a protein.

Biological target: T1, CD151-Flag (UniProt P48509)
T1 sequence: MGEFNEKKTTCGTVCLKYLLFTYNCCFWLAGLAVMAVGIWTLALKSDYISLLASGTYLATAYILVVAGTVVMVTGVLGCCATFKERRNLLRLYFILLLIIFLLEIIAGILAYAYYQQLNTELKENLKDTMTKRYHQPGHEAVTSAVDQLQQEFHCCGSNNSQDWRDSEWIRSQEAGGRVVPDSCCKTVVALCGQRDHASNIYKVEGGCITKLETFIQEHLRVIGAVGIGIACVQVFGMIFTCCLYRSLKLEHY
Test: co-IP; HEK-293 cells transfected simultaneously with CD151-Flag, integrin α6-His, integrin β1-HA and integrin β4-HA; lysis in 20 mM Tris pH 7.5, 150 mM NaCl, 1% Triton X-100, 1 mM EDTA with protease inhibitors; incubated with anti-Flag, anti-His, anti-HA overnight at 4 °C; Dynabeads Protein G; western blotting

binding: binds
B1: integrin α6-His (protein, UniProt P23229 24-1130)
chain: FNLDTREDNVIRKYGDPGSLFGFSLAMHWQLQPEDKRLLLVGAPRAEALPLQRANRTGGLYSCDITARGPCTRIEFDNDADPTSESKEDQWMGVTVQSQGPGGKVVTCAHRYEKRQHVNTKQESRDIFGRCYVLSQNLRIEDDMDGGDWSFCDGRLRGHEKFGSCQQGVAATFTKDFHYIVFGAPGTYNWKGIVRVEQKNNTFFDMNIFEDGPYEVGGETEHDESLVPVPANSYLGLLFLTSVSYTDPDQFVYKTRPPREQPDTFPDVMMNSYLGFSLDSGKGIVSKDEITFVSGAPRANHSGAVVLLKRDMKSAHLLPEHIFDGEGLASSFGYDVAVVDLNKDGWQDIVIGAPQYFDRDGEVGGAVYVYMNQQGRWNNVKPIRLNGTKDSMFGIAVKNIGDINQDGYPDIAVGAPYDDLGKVFIYHGSANGINTKPTQVLKGISPYFGYSIAGNMDLDRNSYPDVAVGSLSDSVTIFRSRPVINIQKTITVTPNRIDLRQKTACGAPSGICLQVKSCFEYTANPAGYNPSISIVGTLEAEKERRKSGLSSRVQFRNQGSEPKYTQELTLKRQKQKVCMEETLWLQDNIRDKLRPIPITASVEIQEPSSRRRVNSLPEVLPILNSDEPKTAHIDVHFLKEGCGDDNVCNSNLKLEYKFCTREGNQDKFSYLPIQKGVPELVLKDQKDIALEITVTNSPSNPRNPTKDGDDAHEAKLIATFPDTLTYSAYRELRAFPEKQLSCVANQNGSQADCELGNPFKRNSNVTFYLVLSTTEVTFDTPDLDINLKLETTSNQDNLAPITAKAKVVIELLLSVSGVAKPSQVYFGGTVVGEQAMKSEDEVGSLIEYEFRVINLGKPLTNLGTATLNIQWPKEISNGKWLLYLVKVESKGLEKVTCEPQKEINSLNLTESHNSRKKREITEKQIDDNRKFSLFAERKYQTLNCSVNVNCVNIRCPLRGLDSKASLILRSRLWNSTFLEEYSKLNYLDILMRAFIDVTAAAENIRLPNAGTQVRVTVFPSKTVAQYSGVPWWIILVAILAGILMLALLVFILWKCGFFKRSRYDDSVPRYHAVRIRKEEREIKDEKYIDNLEKKQWITKWNENESYS
